The campaign covered roughly 320,000 compounds. About 620 (0.19%) were called active. The shares of active, inactive and inconclusive entries below differ from those in the screen. Cut-off read from the data, not from the text of the source: active = activation above about 80%; inconclusive = between about 30% and that limit; inactive = weaker than that.
Target: Transient receptor potential cation channel subfamily V member 1 (Homo sapiens) (UniProt Q8NER1)
Test: HTS Assay for Compounds that Act as Agonists of the Vanilloid Receptor 1; note: 0% is about no effect
Conditions: TRPV1-expressing cells, Fluo-8 calcium influx, agonist mode; at 8.33 µM, stronger effect = higher value
Procedure, shortened: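 TRPV1-expressing cells were cultured overnight at 35.5C and loaded with Fluo-8 calcium dye for 40 to 90 min at room temperature. After a 10 s baseline, compound was added and calcium influx was read kinetically for 3 min (ex 480/em 520 nm).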

Sequences of proteins named here, by UniProt entry; tags and fusion partners are left off.
UniProt Q8NER1, whole entry, looked up: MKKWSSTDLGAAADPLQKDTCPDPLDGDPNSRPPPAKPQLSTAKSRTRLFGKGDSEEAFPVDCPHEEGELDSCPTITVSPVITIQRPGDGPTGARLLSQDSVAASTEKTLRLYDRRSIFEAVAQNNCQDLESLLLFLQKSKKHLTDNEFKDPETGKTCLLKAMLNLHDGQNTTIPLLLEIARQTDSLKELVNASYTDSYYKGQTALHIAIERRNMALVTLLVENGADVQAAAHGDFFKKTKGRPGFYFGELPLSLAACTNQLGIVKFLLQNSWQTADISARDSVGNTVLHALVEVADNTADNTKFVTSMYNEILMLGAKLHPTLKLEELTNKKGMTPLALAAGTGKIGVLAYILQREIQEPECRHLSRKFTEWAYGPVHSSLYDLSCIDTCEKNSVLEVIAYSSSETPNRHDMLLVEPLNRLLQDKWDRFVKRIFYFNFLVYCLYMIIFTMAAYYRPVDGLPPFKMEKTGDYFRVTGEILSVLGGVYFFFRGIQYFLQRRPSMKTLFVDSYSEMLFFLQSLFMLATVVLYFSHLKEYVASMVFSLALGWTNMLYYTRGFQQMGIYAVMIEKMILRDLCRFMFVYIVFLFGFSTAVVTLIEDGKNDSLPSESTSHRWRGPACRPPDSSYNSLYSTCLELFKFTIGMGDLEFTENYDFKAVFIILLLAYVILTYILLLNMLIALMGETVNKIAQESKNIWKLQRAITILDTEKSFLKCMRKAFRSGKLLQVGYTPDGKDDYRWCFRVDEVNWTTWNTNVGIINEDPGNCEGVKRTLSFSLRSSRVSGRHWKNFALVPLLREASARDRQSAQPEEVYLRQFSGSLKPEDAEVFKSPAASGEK

| SMILES | activation |
| --- | --- |
| NC(=S)N/N=C/c1ccc(-c2cc(Cl)c(Cl)cc2Cl)o1 | inactive: 1.75% |
| O=C(N/N=C/c1c[nH]c2ccccc12)c1cccc(Cl)c1 | inactive: 1.43% |
| Cc1c(Cl)cccc1NC(=S)N1CCN(S(=O)(=O)c2cccs2)CC1 | inconclusive: 30.8% |
| O=C(Nc1ccccc1O)c1csc2c1CCCC2 | inconclusive: 47.3% |
| CCC(C)c1ccc(C(C)NC(=S)NC2CCCCC2)cc1 (stereo unspecified) | inconclusive: 34.5% |
| O=C1OC(/C(=C\Nc2ccc(F)cc2F)[N+](=O)[O-])c2ccccc21 (stereo unspecified) | inactive: 1.71% |
| CCN(CC)c1nc(OCCNC(=O)Nc2ccccc2)nc(N(CC)CC)n1 | inactive: 0.998% |
| CCOc1ccc(CN2CCN(Cc3cccn3-c3ncccn3)CC2CCO)cc1 (stereo unspecified) | inactive: -7.41% |
| CCOC(=O)Cn1c(=O)c2c(nc3n2CC(C)CN3Cc2ccccc2)n(C)c1=O (stereo unspecified) | inconclusive: 32.8% |
| O=C(NCCC1=CCCCC1)c1ccc(F)cc1 | inconclusive: 75.1% |
| N#C/C(=C/c1ccc(N2CCOCC2)o1)c1ccc(Cl)cc1 | inactive: 21.1% |
| Fc1ccccc1/C=C1\CCCC2=C1NC(=S)NC2c1ccccc1F (stereo unspecified) | inactive: 0.88% |
| NC(=O)CSc1nnc(COc2ccccc2)n1CCc1ccccc1 | inconclusive: 44.8% |
| COc1ccc(-c2ccc(N(C)C)cc2)cc1[C@H]1[C@H]2C=CC[C@@H](C)[C@@H]2C(=O)N1Cc1ccccc1 | inconclusive: 50.2% |
| COc1cc([N+](=O)[O-])cc2sc(NC(C)=O)nc12 | inactive: 0.978% |
| CCCCNC(=O)Nc1nnc(-c2ccc(OCC)cc2)o1 | inactive: 0.915% |
| O=C1NC2(CCCCCC2)C(=O)N1Cc1ccc(Cl)cc1Cl | inconclusive: 32.4% |
| O=C(CSCc1cnn(-c2ccccc2)c1-n1cccc1)NCc1cccnc1 | inactive: -5.6% |
| Cc1ccc(-c2csc3ncnc(N4CCc5ccccc5C4)c23)cc1 | inconclusive: 40.1% |
| COCCNC(=S)N1CCN(c2cccc(C)c2C)CC1 | inconclusive: 66.9% |
| O=C(CN1CCCC1)NCC1(c2ccccc2)CCOCC1 | inactive: 3.72% |
| C[C@H](NC(=O)c1nc[nH]c1C(=O)N[C@@H](Cc1ccccc1)C(=O)OCc1ccccc1)C(=O)OC(C)(C)C | inconclusive: 70.6% |
| Oc1ccc(N=Cc2ccc(OCc3ccccc3)cc2)cc1 | inactive: 1.04% |

A portion from further up, as a working copy:

| SMILES | activation |
| --- | --- |
| Cc1ccc(-c2csc3ncnc(N4CCc5ccccc5C4)c23)cc1 | inconclusive: 40.1% |
| COCCNC(=S)N1CCN(c2cccc(C)c2C)CC1 | inconclusive: 66.9% |

Remaining list, next part.

| SMILES | activation |
| --- | --- |
| Cc1cccc(-c2nc3c(c(SCC(=O)N4CCOCC4)n2)COC(C)(C)C3)c1 | inconclusive: 41.7% |
| Cc1ccc(CN2CCSc3ccc(C(=O)NCC4CCCO4)cc32)cc1 (stereo unspecified) | inconclusive: 65.5% |
| CC(NC(=O)Cn1cc(C(=O)C2CC2)c2ccccc21)c1ccccc1 (stereo unspecified) | inconclusive: 60.1% |
| O=C(CSc1ccc(Cl)cc1)N1CCOCC1 | inconclusive: 36.7% |
| COc1ccc2[nH]cc(C(O)CN3CCN(c4ccccc4)CC3)c2c1 (stereo unspecified) | inconclusive: 35.3% |
| O=C(Cn1cnc([N+](=O)[O-])n1)N/N=C/c1ccccc1O | inactive: -1.94% |
| COc1ccc(NC(=O)c2ccc(Cl)c(S(=O)(=O)N3CCc4ccccc4C3)c2)cn1 | inconclusive: 47.3% |
| COC(=O)COc1ccc(S(=O)(=O)Nc2ccc3c(c2)OCO3)cc1 | inactive: -3.36% |
| O=C(Nc1ccon1)C1CCN(S(=O)(=O)c2cccs2)CC1 | inconclusive: 46.8% |
| C=CCNC(=S)NCC1COc2ccccc2O1 (stereo unspecified) | inconclusive: 32.1% |
| COc1cccc(NC(=O)c2cc3ccccc3oc2=O)c1 | inactive: 0.207% |
| CCC1CCCCN1CC(C)(C)NS(=O)(=O)c1ccccc1 (stereo unspecified) | inactive: 1.05% |
| Cc1nn(C)c(C)c1CNC(=O)Nc1cccc(Cl)c1 | inconclusive: 31.5% |
| CCCOC(=O)C1=C(C)NC(=O)NC1c1cc2c(cc1Br)OCO2 (stereo unspecified) | inactive: -5.96% |
| S=C(NCc1ccco1)N1CCN(c2nc(-c3ccccc3)cs2)CC1 | inconclusive: 34.1% |
| CCOC(=O)c1sc2nc(C)nc(NCc3ccccc3)c2c1C | inactive: 12.2% |
| Brc1ccc(-c2cnc(-c3cccs3)o2)cc1 | inconclusive: 50.5% |
| O=C(NC1CCN(Cc2ccccc2)CC1)C12CC3CC(CC(C3)C1)C2 | inconclusive: 41.8% |
| CC1(c2ccc(OC(F)F)cc2)NC(=O)N(CC(=O)Nc2ccc3c(c2)OCO3)C1=O (stereo unspecified) | inconclusive: 34% |
| O=C(Cc1csc(NC(=O)c2ccc(F)cc2)n1)NO | inactive: -1.12% |
| O=C(c1cc(COc2ccc(F)cc2Cl)on1)N1CCc2ccccc2C1 | inconclusive: 36% |
| COc1ccc(-c2nnc(-c3ccc(F)cc3)o2)cc1 | inconclusive: 67.7% |
| COc1ccc2oc(C(=O)Nc3nc4ccccc4[nH]3)c(C)c2c1 | inactive: -6.35% |

Part of the list above, tab-delimited.
SMILES	activation
CC1(c2ccc(OC(F)F)cc2)NC(=O)N(CC(=O)Nc2ccc3c(c2)OCO3)C1=O (stereo unspecified)	inconclusive: 34%
O=C(Cc1csc(NC(=O)c2ccc(F)cc2)n1)NO	inactive: -1.12%

Remaining list, next part

| SMILES | activation |
| --- | --- |
| O=C1NC(CCc2ccccc2)C(=O)N1Cc1ccc(Br)cc1 (stereo unspecified) | inconclusive: 34.4% |
| Cc1ccc2nc(C)c(C(=O)N/N=C/c3cccs3)cc2c1 | inactive: 15.9% |
| CCC(=O)N(CCc1ccccc1C)Cc1cc2ccc(C)cc2[nH]c1=O | inconclusive: 58.4% |
| Cc1ccc(NC(=O)/C=C/c2cccs2)c([N+](=O)[O-])c1 | inconclusive: 33% |
| CCOc1ccccc1C1CC(=O)Nc2cc(C)c(C)cc21 (stereo unspecified) | inconclusive: 35.6% |
| S=c1[nH]nc(-c2ccncc2)n1Cc1ccco1 | inactive: -7.64% |
| O=C(C1CC1c1ccccc1)N1CCN(c2cccc(Cl)c2)CC1 (stereo unspecified) | inconclusive: 70.6% |
| O=C1N=C(N2CCOCC2)S/C1=C\C=C/c1ccccc1 | inconclusive: 62.2% |
| CCO[C@H]1OC(C(=O)N2CCN(Cc3ccccc3)CC2)=C[C@@H](c2ccc(C(F)(F)F)cc2)[C@@H]1CCCO | inconclusive: 71.4% |
| Cc1c(Cc2ccccc2)c(=O)n2c([nH]c3ccccc32)c1C#N | inconclusive: 49.2% |
| Cc1cc(C)cc(CC2CC(=O)N(c3nc(C)cc(C)n3)C2=O)c1 (stereo unspecified) | inactive: 4.06% |
| COC(=O)C1=CN(C2CC2)C=C(C(=O)OC)C1c1ccc(C(=O)OC)cc1 | inactive: -2.34% |
| Cc1ccc(CCNC(=O)c2ccc(CS(=O)(=O)Cc3ccccc3F)o2)cc1 | inconclusive: 45.5% |
| COc1ccc(C2=C(CN(C)C)C(c3ccccc3)c3ccccc3O2)cc1 (stereo unspecified) | inconclusive: 34% |
| COc1ccc(S(=O)(=O)N2CCCCCC2)cc1C(=O)N1CCN(c2ccccc2O)CC1 | inactive: 1.86% |
| COc1cc(NC(=O)COC(=O)CNC(=O)C23CC4CC(CC(C4)C2)C3)cc(OC)c1 | inconclusive: 46.7% |
| O=C(Cc1ccc([N+](=O)[O-])cc1)N/N=C/c1ccc([N+](=O)[O-])o1 | inactive: -3.73% |
| COc1ccc(-c2noc(C3CCCN(C(=O)c4cccc(F)c4)C3)n2)cc1 (stereo unspecified) | inconclusive: 43.7% |
| CCOC(=O)c1cnc(SCc2ccccc2)nc1N | inactive: 2.99% |
| Cc1ccc(NC(=O)CSCC(=O)NCc2ccco2)cc1 | inactive: 0.762% |
| CSc1ncc(Cl)c(C(=O)Nc2cccc(C)c2)n1 | inconclusive: 41.7% |
| O=C(Nc1ccccc1)N1CCCN(c2nccc(C(F)(F)F)n2)CC1 | active: 87.1% |
| CCOCCCNC(C(=O)Nc1ccc(OC)c(Cl)c1)c1ccccc1 (stereo unspecified) | inconclusive: 63.5% |

| SMILES | activation |
| --- | --- |
| CCCC(=O)N1CC(=O)Nc2ccc(F)cc2C1c1ccccc1 (stereo unspecified) | inactive: -0.882% |
| O=C(Nc1ccc(Br)cc1)c1ccccc1Br | inconclusive: 31.1% |
| O=C(COC(=O)C1C2CC3OC(=O)C1C3C2)Nc1ccc(Br)cc1 (stereo unspecified) | inactive: -1.25% |
| Cc1cc(C)n2nc(-c3sccc3-n3c(C)ccc3C)cc2n1 | inactive: 2.19% |
| O=C(NCCC(c1ccccc1)c1ccccc1)c1cnccn1 | inconclusive: 45.1% |
| CC(C)(C)NC(=O)CCn1nc(-c2ccc(Cl)cc2)c2ccccc2c1=O | inactive: 0.417% |
| Cc1cc(C)cc(NC(=O)C2CCN(S(=O)(=O)c3ccc4[nH]c(=O)ccc4c3)CC2)c1 | inactive: -1.07% |
| CC(=O)Nc1ccc(NC(=O)CSc2nc3ccccc3o2)cc1 | inconclusive: 42.8% |
| S=C(NCc1ccco1)Nc1ccc(Br)cn1 | inactive: 3.87% |
| CC1CC1C(=O)Nc1cc(C(F)(F)F)ccc1N1CCOCC1 (stereo unspecified) | inconclusive: 45.6% |
| CCOC(=O)C1=C(N)N2C(=O)C(C)SC2=C(C(=O)OCC)C1c1ccccc1 (stereo unspecified) | inconclusive: 65.2% |
| Cc1cc(=O)n2nc(N3CCCC(C(=O)NCCc4ccc(Cl)cc4)C3)sc2n1 (stereo unspecified) | inactive: -0.322% |
| CCCCCCCCCCCNC(=O)c1ccoc1C | inconclusive: 37.6% |
| CCC(=O)Nc1ccc(Nc2ccccc2)cc1 | inactive: 4.75% |
| Cc1ccc(NC(=O)c2oc3c(c2C)C(=O)CC(C)(C)C3)cc1 | inconclusive: 76% |
| COc1ccccc1N(Cc1ccccc1)S(=O)(=O)c1cccc(C(=O)Nc2ccc(C)cn2)c1 | inconclusive: 37.7% |
| Cc1cc(OCc2cc(C(=O)N(C)CCc3cnn(C)c3)no2)cc(C)c1Cl | inconclusive: 45.3% |
| CNC(=O)c1ccc(NC(=O)C2CCN(c3ncnc4sc(C)c(C)c34)CC2)cc1 | inconclusive: 72.9% |
| Cc1ccc(-c2nn(-c3ccccc3)cc2C=C2C(=O)CC(C)(C)CC2=O)cc1 | inconclusive: 31.5% |
| COc1ccc(CCNc2cc(N3CCN(C(=O)c4ccc(C)cc4)CC3)ccc2[N+](=O)[O-])cc1OC | inactive: -0.189% |
| CCO[C@H]1OC(C(=O)Nc2ccccc2)=C[C@@H](c2ccc(C(F)(F)F)cc2)[C@@H]1CCCO | inconclusive: 31.5% |
| COc1cccc(C(=O)N2CCN(Cc3ccc(OC)cc3OC)CC2)c1 | inconclusive: 31.8% |

Source: PubChem BioAssay AID540275 (National Center for Advancing Translational Sciences (NCATS), 2011)
